# Measurements reported in PubChem BioAssay AID1159578 (Peter MacCallum Cancer Centre, 2015)
# Aim: 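Knock-downs that alter how fast lymphatic endothelial cells migrate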 (primary screen)
# Cell system: human lymphatic endothelial cells
# Reagents: siRNA pool against human genes, 40 nM
# Timing: 48 h after transfection
# Measurement: 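High-content imaging of dye-stained cells in a scratch assay measures filled wound area and nuclei per well; duplicate means given as ratio to mock and robust z-score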
# Reading the numbers: migration robust z-score: higher = faster migration into the scratch; migration relative to mock: higher = more scratch area covered than mock; nuclei per well: higher = more cells in the well
# Active means: 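Pools averaging fewer than 3300 nuclei are never called; remaining pools count as changed when migration robust z lies outside -2 to 2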
# Meaning of the calls: active = migration changed; inactive = no migration change, or too few cells
# This is a random part of about 18,000 deposited reagents. About 1,030 of them (5.7%) were called active. 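Inactive calls also include pools with fewer than 3300 nuclei, whose migration was not assessed.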 Raw values are not corrected between plates.
Target gene,migration robust z-score,migration class with cell-count check,migration relative to mock,"nuclei per well, duplicate mean",Outcome
CRLF3,1,migration z between -2 and 2; enough cells,1.14,7120,inactive
PGM2L1,0.9,migration z between -2 and 2; enough cells,0.98,5768,inactive
CCR7,0.02,migration z between -2 and 2; enough cells,0.81,7454,inactive
YIF1B,1.68,migration z between -2 and 2; enough cells,1.31,6022,inactive
RAB19,-1.25,migration z between -2 and 2; enough cells,0.56,5356,inactive
MPHOSPH6,0.38,migration z between -2 and 2; enough cells,0.99,5672,inactive
PEX16,1.24,migration z between -2 and 2; enough cells,1.21,5656,inactive
PGGT1B,-0.08,migration z between -2 and 2; enough cells,0.79,5656,inactive
UGT8,-0.08,migration z between -2 and 2; enough cells,0.86,7801,inactive
RASGRP1,-0.04,migration z between -2 and 2; enough cells,0.87,6370,inactive
GAB2,1.22,under 3300 nuclei; migration not judged,1.04,2644,inactive
DKK3,0.52,migration z between -2 and 2; enough cells,1.02,5597,inactive
GPR20,-1.15,migration z between -2 and 2; enough cells,0.58,4879,inactive
LETMD1,0.6,migration z between -2 and 2; enough cells,1.04,6243,inactive
CBL,-0.39,migration z between -2 and 2; enough cells,0.73,5828,inactive
ZAP70,-0.76,migration z between -2 and 2; enough cells,0.66,3604,inactive
NOTCH2,0.57,migration z between -2 and 2; enough cells,0.92,5050,inactive
SLC25A24,-0.16,migration z between -2 and 2; enough cells,0.84,6041,inactive
GABRR2,-0.13,migration z between -2 and 2; enough cells,0.78,6506,inactive
MRAS,0.26,migration z between -2 and 2; enough cells,0.86,6225,inactive
C8B,0.9,migration z between -2 and 2; enough cells,1.12,5691,inactive
IL17RC,1.46,migration z between -2 and 2; enough cells,1.26,6384,inactive
ST13,0.13,migration z between -2 and 2; enough cells,0.83,5634,inactive
NPTN,0.86,migration z between -2 and 2; enough cells,0.97,5753,inactive
ABHD17A,-0.42,migration z between -2 and 2; enough cells,0.78,5302,inactive
AP1S1,1,migration z between -2 and 2; enough cells,1.15,5433,inactive
ADGRG4,1.4,migration z between -2 and 2; enough cells,1.08,5997,inactive
LYZL1,1.68,migration z between -2 and 2; enough cells,1.13,6035,inactive
PRSS45P,0.31,migration z between -2 and 2; enough cells,0.86,5234,inactive
ACTRT1,0.82,migration z between -2 and 2; enough cells,1.09,5700,inactive
GLDC,0.36,migration z between -2 and 2; enough cells,0.88,6256,inactive
ARID3B,-1.5,migration z between -2 and 2; enough cells,0.5,3914,inactive
TGM7,-3.07,under 3300 nuclei; migration not judged,0.22,3023,inactive
RBX1,-0.5,migration z between -2 and 2; enough cells,0.71,7456,inactive
DNER,-1.08,migration z between -2 and 2; enough cells,0.6,5622,inactive
P3H4,-1.27,migration z between -2 and 2; enough cells,0.55,4480,inactive
CYP11B1,-0.24,migration z between -2 and 2; enough cells,0.76,5244,inactive

Copied from the listing (7 entries):
Target gene,migration robust z-score,migration class with cell-count check,migration relative to mock,"nuclei per well, duplicate mean",Outcome
ACTRT1,0.82,migration z between -2 and 2; enough cells,1.09,5700,inactive
GLDC,0.36,migration z between -2 and 2; enough cells,0.88,6256,inactive
ARID3B,-1.5,migration z between -2 and 2; enough cells,0.5,3914,inactive
TGM7,-3.07,under 3300 nuclei; migration not judged,0.22,3023,inactive
RBX1,-0.5,migration z between -2 and 2; enough cells,0.71,7456,inactive
DNER,-1.08,migration z between -2 and 2; enough cells,0.6,5622,inactive
P3H4,-1.27,migration z between -2 and 2; enough cells,0.55,4480,inactive

Additional reagents:
Target gene,migration robust z-score,migration class with cell-count check,migration relative to mock,"nuclei per well, duplicate mean",Outcome
PDIA2,-0.02,migration z between -2 and 2; enough cells,0.8,6306,inactive
TWSG1,1.29,migration z between -2 and 2; enough cells,1.22,6534,inactive
XKRYP7,-0.52,migration z between -2 and 2; enough cells,0.75,4556,inactive
BRF2,0.86,migration z between -2 and 2; enough cells,1.11,6521,inactive
SMYD3,0.68,migration z between -2 and 2; enough cells,0.94,4330,inactive
TRIM49C,-0.44,migration z between -2 and 2; enough cells,0.72,7114,inactive
FGF19,0.2,migration z between -2 and 2; enough cells,0.84,6016,inactive
SLCO6A1,0.13,migration z between -2 and 2; enough cells,0.83,6958,inactive
ATP8B1,-0.16,migration z between -2 and 2; enough cells,0.78,4636,inactive
TMCC3,0.42,migration z between -2 and 2; enough cells,1,6890,inactive
EID1,-1.72,migration z between -2 and 2; enough cells,0.44,5452,inactive
LINGO1,0.68,migration z between -2 and 2; enough cells,1.06,6646,inactive
IFNAR1,-0.48,migration z between -2 and 2; enough cells,0.76,6776,inactive
SLC6A4,0.83,migration z between -2 and 2; enough cells,0.97,5450,inactive
LCORL,0.44,migration z between -2 and 2; enough cells,0.89,4791,inactive
EPHA5,0.46,migration z between -2 and 2; enough cells,0.9,7398,inactive
SERTAD3,-0.49,migration z between -2 and 2; enough cells,0.76,5206,inactive
COA4,-2.54,under 3300 nuclei; migration not judged,0.23,2126,inactive
TUBB1,0.36,migration z between -2 and 2; enough cells,0.88,5838,inactive
NKAP,0.32,migration z between -2 and 2; enough cells,0.97,6486,inactive
